No constants are given. Whether binding was seen depends on the method and setting. In cells and extracts the contact can be indirect. Some results given as binding are weak or reduced against the parent protein; the word gives no strength. Where a sequence is shown, tags or fusion partners need not be part of it.
Biological target: T1, FLAG-PRRT2 (proline-rich transmembrane protein 2) (UniProt E9PUL5)
T1 sequence: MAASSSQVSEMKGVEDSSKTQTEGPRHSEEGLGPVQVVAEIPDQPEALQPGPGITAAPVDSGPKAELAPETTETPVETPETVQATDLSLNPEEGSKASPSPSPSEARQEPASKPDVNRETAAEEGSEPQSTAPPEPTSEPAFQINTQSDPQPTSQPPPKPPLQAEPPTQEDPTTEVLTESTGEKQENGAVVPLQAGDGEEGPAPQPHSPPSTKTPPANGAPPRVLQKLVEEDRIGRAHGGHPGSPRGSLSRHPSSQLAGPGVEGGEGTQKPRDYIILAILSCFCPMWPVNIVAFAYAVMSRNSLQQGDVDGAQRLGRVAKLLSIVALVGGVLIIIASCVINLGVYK
Assay: co-IP

The chains behind the UniProt entries cited, without tags or fusion partners. Residues count along the entry.
UniProt P19490, residues 19-907: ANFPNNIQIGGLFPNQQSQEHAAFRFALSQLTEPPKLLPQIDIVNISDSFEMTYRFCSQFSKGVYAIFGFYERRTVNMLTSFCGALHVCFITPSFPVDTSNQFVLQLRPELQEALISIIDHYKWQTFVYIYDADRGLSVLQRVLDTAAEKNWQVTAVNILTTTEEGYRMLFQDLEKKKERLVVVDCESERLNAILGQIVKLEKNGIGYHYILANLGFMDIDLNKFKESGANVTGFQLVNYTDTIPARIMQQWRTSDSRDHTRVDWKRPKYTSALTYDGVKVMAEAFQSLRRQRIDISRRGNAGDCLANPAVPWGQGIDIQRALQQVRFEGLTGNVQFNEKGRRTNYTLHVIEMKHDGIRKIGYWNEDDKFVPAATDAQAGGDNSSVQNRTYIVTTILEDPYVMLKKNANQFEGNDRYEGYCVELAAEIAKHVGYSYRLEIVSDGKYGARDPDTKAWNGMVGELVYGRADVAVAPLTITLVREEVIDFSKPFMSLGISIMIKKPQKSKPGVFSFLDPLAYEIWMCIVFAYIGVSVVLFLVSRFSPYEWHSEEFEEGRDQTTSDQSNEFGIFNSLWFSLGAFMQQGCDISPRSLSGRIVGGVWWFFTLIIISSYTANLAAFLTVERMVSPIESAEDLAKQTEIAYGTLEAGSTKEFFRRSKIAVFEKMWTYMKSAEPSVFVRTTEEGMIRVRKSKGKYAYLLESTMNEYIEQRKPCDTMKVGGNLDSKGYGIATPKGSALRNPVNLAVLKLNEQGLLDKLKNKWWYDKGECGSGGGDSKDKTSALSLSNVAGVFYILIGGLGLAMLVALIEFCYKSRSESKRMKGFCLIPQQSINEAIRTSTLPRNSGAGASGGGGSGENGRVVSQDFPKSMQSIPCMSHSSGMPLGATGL

binding: binds
Substance: AMPA receptor subunit GluA1 (overexpressed in HEK293T) (from UniProt P19490 19-907)
